The results in this text go back to paper PMC4800434.

The test has as its target T1, myc-tagged ATL1 (Atlastin-1) (mouse) (UniProt Q8BH66).
T1 sequence: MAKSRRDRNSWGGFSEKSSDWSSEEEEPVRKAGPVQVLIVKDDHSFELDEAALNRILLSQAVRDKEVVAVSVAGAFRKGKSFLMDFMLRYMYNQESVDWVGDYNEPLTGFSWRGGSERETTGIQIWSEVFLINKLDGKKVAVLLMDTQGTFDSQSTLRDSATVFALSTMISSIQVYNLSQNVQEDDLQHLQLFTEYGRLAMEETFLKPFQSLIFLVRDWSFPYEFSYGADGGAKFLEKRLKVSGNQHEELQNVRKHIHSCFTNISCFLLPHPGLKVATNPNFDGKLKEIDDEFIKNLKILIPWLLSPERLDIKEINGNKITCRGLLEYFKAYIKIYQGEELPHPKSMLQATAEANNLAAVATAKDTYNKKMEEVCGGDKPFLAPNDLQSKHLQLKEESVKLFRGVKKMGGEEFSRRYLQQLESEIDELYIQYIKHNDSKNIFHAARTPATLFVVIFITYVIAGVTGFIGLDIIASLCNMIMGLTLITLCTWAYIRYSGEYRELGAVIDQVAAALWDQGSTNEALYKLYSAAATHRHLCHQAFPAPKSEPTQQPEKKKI
Put plainly: co-IP; COS-1 cells transfected with myc-tagged Atl1 and HA-tagged Vcp for 24 h; lysis in 50 mM Tris pH 7.4, 1% Triton X-100; immunoprecipitation with Myc antibodies or control non-immune IgG and protein A sepharose, 4 h at 4 °C; washes with 1% Triton X-100, 0.5 M LiCl; immunoblotting. For orientation: In western blotting, separated proteins are transferred to a membrane and probed.

These are yes or no findings as the source states them, for the method shown. In cells and extracts the contact can be indirect. Some results given as binding are weak or reduced against the parent protein; the word gives no strength. Tags and fused reporters may be left off the sequences shown.

For “HA-tagged VCP (valosin-containing protein) (from UniProt Q01853 1-806)”, the binding result is on record as “binds”.
